Measurements from patent US12582689B2, “Use of terpenoids in the treatment or prevention of fibrotic diseases” (ARJIL BIOTECH HOLDING COMPANY LIMITED, priority 2020, dated 2026).
At least one compound was matched to its structure with a doubt left.

Tested on: lung MPO activity
Assay: Bleomycin-induced pulmonary fibrosis in mice: lung myeloperoxidase (MPO) assay
Assay type: in vivo
Settings: BLM mice; compared with BLM group, p<0.001; FIG. 36
Method: Mice were divided into fifth groups with 5 animals per group according to body weight: control group, BLM group, BLM+DEX group (7.5 mg/kg), BLM+ACH dosage group (50 mg/kg), and BLM+ACM dosage group (2.5 mg/kg), BLM+ACH dosage group (50 mg/kg), and BLM+ACM dosage group (25 mg/kg) BLM+AH dosage group (50 mg/kg), and BLM+AM dosage group (25 mg/kg) BLM+BH dosage group (50 mg/kg), and BLM+BM dosage group (25 mg/kg) BLM+CH dosage group (50 mg/kg), and BLM+CM dosage group (25 mg/kg) BLM+DH dosage group (50 mg/kg), and BLM+DM dosage group (25 mg/kg) BLM+EH dosage group (50 mg/kg), and BLM+EM dosage group (25 mg/kg) BLM. Pulmonary fibrosis (PF) was established in mice via a single intratracheal administration of BLM at 7.5 mg/kg mg/kg body weight. Different doses of samples were intragastrically administered daily for 21 days after BLM injury, and DEX was used as the positive control. Control and model groups received an equal volume of vehicle (0.9% NaCl) using the same schedule and route of administration.
The pulmonary MPO activity was a reliable index for estimating the infiltration of inflammatory cells in lungs. The lung tissues were homogenized and the MPO levels were detected with the kits according to manufacturer's instruction.

## C[C@@H]1C[C@H]2[C@@H]3CCC4=CC(=O)C=C[C@]4(C)[C@@]3(F)[C@@H](O)C[C@]2(C)[C@@]1(O)C(=O)CO [DEX, Dexamethasone, reference compound]
  lung MPO activity: evidently suppressed the MPO activities
